Experimental data as given in the supplement of paper PMC10331698.
± gives the standard deviation of the averaged measurements. Most values lie at the level of the controls, where differences are scatter.

Experiments:
Assay in all cases: level (log10 ratio to DMSO vehicle control); higher = higher biomarker level / cell amount than vehicle control
[1] = compound: CN(C(=O)C(F)(F)C(F)(F)C(F)(F)F)[Si](C)(C)C [N-Methyl-N-trimethylsilylheptafluorobutyramide]; conditions: 2200 nM; in DMSO
Method: (§1)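 BioMAP Diversity Plus panel of 12 human primary cell co-culture systems (3C, 4H, LPS, SAg, BT, BF4T, BE3C, CASM3C, HDF3CGF, KF3CT, MyoF, Mphg). Compounds were added 1 h before stimulation and left for 24 h (MyoF 48 h; BT 72 h for soluble read-outs or 6 d for IgG). Biomarkers were read by ELISA, cytotoxicity by SRB, PBMC viability and proliferation by Alamar Blue. Each well value was divided by the mean of 8 DMSO control wells on the same plate and log10 transformed; duplicate blinded samples were tested at 4 concentrations.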

Perfluoropentanoic acid = compound: O=C(O)C(F)(F)C(F)(F)C(F)(F)C(F)(F)F [Perfluoropentanoic acid]; conditions: in DMSO
Method: as §1

[2] = compound: O=C(O)C(F)(F)C(F)(F)C(F)(F)C(F)(F)C(F)(F)C(F)(F)C(F)(F)C(F)(F)C(F)(F)C(F)F [11-H-Perfluoroundecanoic acid]; conditions: 2200 nM; in DMSO
Method: as §1

[3] = compound: NCC(F)(F)C(F)(F)C(F)(F)C(F)(F)C(F)(F)C(F)(F)C(F)(F)F [1H,1H-Perfluorooctylamine]; conditions: 2200 nM; in DMSO
Method: as §1

[4] = compound: FC(F)(F)C(F)(F)C(F)(F)C(F)(F)C(F)(F)C(F)(F)CC1CO1 [3-(Perfluorohexyl)-1,2-epoxypropane]; conditions: 2200 nM; in DMSO
Method: as §1

Heptafluorobutyramide = compound: NC(=O)C(F)(F)C(F)(F)C(F)(F)F [Heptafluorobutyramide]; conditions: 2200 nM; in DMSO
Method: as §1

Perfluoroheptanoic acid = compound: O=C(O)C(F)(F)C(F)(F)C(F)(F)C(F)(F)C(F)(F)C(F)(F)F [Perfluoroheptanoic acid]; conditions: in DMSO
Method: as §1

1H,1H-Heptafluorobutanol = compound: OCC(F)(F)C(F)(F)C(F)(F)F [1H,1H-Heptafluorobutanol]; conditions: 2200 nM; in DMSO
Method: as §1

[5] = compound: CC(C)(C)C(=O)CC(=O)C(F)(F)C(F)(F)C(F)(F)F [(Heptafluorobutanoyl)pivaloylmethane]; conditions: 2200 nM; in DMSO
Method: as §1

[6] = compound: CCN(CCO)S(=O)(=O)C(F)(F)C(F)(F)C(F)(F)C(F)(F)C(F)(F)C(F)(F)C(F)(F)C(F)(F)F [N-Ethyl-N-(2-hydroxyethyl)perfluorooctanesulfonamide]; conditions: in DMSO
Method: as §1

[7] = compound: OCCC(F)(F)C(F)(F)C(F)(F)C(F)(F)C(F)(F)C(F)(F)F [6:2 Fluorotelomer alcohol]; conditions: 2200 nM; in DMSO
Method: as §1

[8] = compound: O=C(O)C(F)(F)C(F)(F)C(F)(F)OC(F)(F)F [Perfluoro(4-methoxybutanoic) acid]; conditions: 2200 nM; in DMSO
Method: as §1

[9] = compound: Cc1ccc(S(=O)(=O)OCC(F)(F)C(F)(F)C(F)(F)C(F)(F)C(F)(F)C(F)F)cc1 [1H,1H,7H-Perfluoroheptyl 4-methylbenzenesulfonate]; conditions: 2200 nM; in DMSO
Method: as §1

[10] = compound: O=S(=O)(O)CCC(F)(F)C(F)(F)C(F)(F)C(F)(F)C(F)(F)C(F)(F)C(F)(F)C(F)(F)F [8:2 Fluorotelomer sulfonic acid]; conditions: in DMSO
Method: as §1

Octafluoroadipic acid = compound: O=C(O)C(F)(F)C(F)(F)C(F)(F)C(F)(F)C(=O)O [Octafluoroadipic acid]; conditions: 2200 nM; in DMSO
Method: as §1

1-(Perfluorohexyl)octane = compound: CCCCCCCCC(F)(F)C(F)(F)C(F)(F)C(F)(F)C(F)(F)C(F)(F)F [1-(Perfluorohexyl)octane]; conditions: in DMSO
Method: as §1

Test System	level (log10) [1]	level (log10) (Perfluoropentanoic acid; 2200 nM)	level (log10) (Perfluoropentanoic acid; 6700 nM)	level (log10) (Perfluoropentanoic acid; 20000 nM)	level (log10) (Perfluoropentanoic acid; 60000 nM)	level (log10) [2]	level (log10) [3]	level (log10) [4]	level (log10) (Heptafluorobutyramide)	level (log10) (Perfluoroheptanoic acid; 2200 nM)	level (log10) (Perfluoroheptanoic acid; 6700 nM)	level (log10) (Perfluoroheptanoic acid; 20000 nM)	level (log10) (Perfluoroheptanoic acid; 60000 nM)	level (log10) (1H,1H-Heptafluorobutanol)	level (log10) [5]	level (log10) ([6]; 2200 nM)	level (log10) ([6]; 6700 nM)	level (log10) ([6]; 20000 nM)	level (log10) [7]	level (log10) [8]	level (log10) [9]	level (log10) ([10]; 2200 nM)	level (log10) ([10]; 6700 nM)	level (log10) ([10]; 20000 nM)	level (log10) ([10]; 60000 nM)	level (log10) (Octafluoroadipic acid)	level (log10) (1-(Perfluorohexyl)octane; 740 nM)	level (log10) (1-(Perfluorohexyl)octane; 2200 nM)
3C:Proliferation	0.0055 ± 0.016	-0.019 ± 0.021	-0.029 ± 0.028	0.011	0.0015 ± 0.046	-0.0045 ± 0.00071	0.001 ± 0.044	-0.0135 ± 0.026	-0.001 ± 0.069	-0.069 ± 0.023	-0.0365 ± 0.028	0.0245 ± 0.057	-0.109 ± 0.057	-0.0245 ± 0.0078	-0.019 ± 0.059	-0.0995 ± 0.1	-0.267 ± 0.087	-0.947 ± 0.17	-0.0275 ± 0.043	-0.0975 ± 0.0064	-0.054 ± 0.045	-0.025 ± 0.031	0.004 ± 0.086	-0.0315 ± 0.083	-0.053 ± 0.018	-0.0035 ± 0.016	-0.0495 ± 0.05	-0.0135 ± 0.057
BF4T:PAI-I	0.0035 ± 0.03	0.0085 ± 0.018	-0.003 ± 0.0014	-0.005 ± 0.0028	0.007 ± 0.011	-0.0805 ± 0.021	-0.003 ± 0.04	0.0115 ± 0.022	0.0095 ± 0.0078	0.01 ± 0.0099	-0.0045 ± 0.019	0.0005 ± 0.025	0.0015 ± 0.028	0.006 ± 0.0042	0.001 ± 0.016	0.0075 ± 0.025	0.014 ± 0.0014	-0.0105 ± 0.00071	0.017 ± 0.024	0.008 ± 0.0057	0.011 ± 0.034	0.0085 ± 0.032	0.005 ± 0.0099	0.002 ± 0.011	0.009 ± 0.0042	0.0015 ± 0.022	0.0115 ± 0.025	0.0075 ± 0.032
KF3CT:CCL2/MCP-1	0.018 ± 0.038	-0.0045 ± 0.019	0.002 ± 0.02	-0.025 ± 0.025	0.0215 ± 0.05	0.016 ± 0.025	0.0005 ± 0.043	-0.01 ± 0.018	0.0225 ± 0.03	-0.008 ± 0.037	0.0165 ± 0.021	0.033 ± 0.024	0.0255 ± 0.053	-0.0015 ± 0.018	0.015 ± 0.014	-0.0165 ± 0.029	-0.0205 ± 0.0078	-0.102 ± 0.019	-0.0035 ± 0.012	0.032 ± 0.041	0.049 ± 0.076	0.0005 ± 0.043	-0.0135 ± 0.005	-0.0585 ± 0.029	-0.0475 ± 0.011	0.0335 ± 0.06	0.0275 ± 0.088	0.0045 ± 0.035
lMphg:sIL-10	-0.001 ± 0.045	0.02 ± 0.03	-0.017 ± 0.013	-0.075 ± 0.025	-0.0845 ± 0.05	-0.0895 ± 0.035	-0.0555 ± 0.074	-0.0195 ± 0.074	-0.025 ± 0.071	-0.0045 ± 0.0035	-0.017 ± 0.018	0.007 ± 0.027	-0.0945 ± 0.032	-0.0115 ± 0.069	-0.0375 ± 0.097	-0.0075 ± 0.03	0 ± 0.024	-0.0505 ± 0.028	-0.05 ± 0.082	0.0415 ± 0.023	-0.079 ± 0.068	-0.0705 ± 0.12	-0.078 ± 0.024	-0.216 ± 0.0057	-0.6535 ± 0.0064	-0.042 ± 0.052	0.021 ± 0.072	0.005 ± 0.075
